Reference: PubChem BioAssay AID493014 (National Center for Advancing Translational Sciences (NCATS), 2011)
The whole screen tested about 340,000 compounds, of which about 170 (0.05%) were called active. This list was built around the results that the source calls inconclusive (neither active nor inactive); the mix of calls is not that of the screen. The call rests on the fitted dose curve; in most records, active means well fitted inhibition curve with a large enough effect in the signal ratio, with a control signal flat (not every such curve was filed as active); inconclusive means small, poorly fitted or top-dose-only effect, or effect the other way, or a change in a side signal; inactive means flat fitted curve, though single readings scatter; the % refers to the signal ratio. Where the call is inconclusive, the potency comes from a doubtful curve fit.

test: qHTS Assay to Find Inhibitors of Chronic Active B-Cell Receptor Signaling; settings: ABC-DLBCL IkBa-CBG/CBR reporter, luminescence ratio (green luciferase fused to IkBa over red control in TMD8 lymphoma cells), 4 h; activity change, negative = inhibition: at 46.1 µM (top of the series);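 on activity change, negative = inhibition: plate controls were basal doxycycline-induced cells for no effect and cells given 10 µM MG132 for full effect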
Procedure, shortened: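 TMD8 ABC-DLBCL cells carrying doxycycline-inducible green luciferase fused to IkappaBalpha plus unfused red luciferase were exposed to compounds (up to 46 uM) for 4 hrs at 37C. Activity came from the overlap-corrected green/red luminescence ratio.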
Potency means the concentration at half of the fitted maximal effect.

Q: For `O=C(Nc1nc(-c2ccccn2)cs1)c1ccc(S(=O)(=O)N2CCCCC2)cc1`, which activity change, negative = inhibition is on record?
A: Its activity change, negative = inhibition is inconclusive: -13.7%.

Q: Which activity change, negative = inhibition does the source give for `N=c1c2c(n(Cc3ccc(Br)cc3)c3c1CCC3)CCCC2` here?
A: The activity change, negative = inhibition was inconclusive: 1.55%.

Q: Which Potency does the source give for `Cc1ccc(/C=C2\SC(=S)N(CCCC(=O)Nc3nccs3)C2=O)cc1` here?
A: The Potency was inconclusive: 3.66 µM [falling, partial curve].

Q: With `CCC1CCCCN1S(=O)(=O)c1ccc2c(c1)CCN2C(=O)C1CCC1` (configuration not stated) as the molecule, how does the activity change, negative = inhibition read?
A: The activity change, negative = inhibition was inconclusive: -4.11%.

Q: With `O=C(N/N=C/c1ccccn1)c1cc([N+](=O)[O-])cc([N+](=O)[O-])c1` as the molecule, how does the Potency read?
A: Its Potency is inconclusive: 8.91 µM [falling, partial curve, poor fit].

Q: Which activity change, negative = inhibition does the source give for `Cc1onc(-c2ccccc2Cl)c1C(=O)NC(=S)NCC(=O)c1ccccc1` here?
A: The activity change, negative = inhibition was inconclusive: 5.09%.

Q: For `CCOC(=O)N1CCN(C(=O)CSc2ccc(-c3ccccc3OC)nn2)CC1`, which “activity change, negative = inhibition” value is on record?
A: The value was inactive: 0.0712%.

Q: For `COc1cccc(/C=N/n2c(C)nc3ccccc3c2=O)c1O`, which Potency is on record?
A: Its Potency is inconclusive: 25.1 µM [falling, partial curve, poor fit].

Q: With `Cc1ccc2nc(SCC(=O)Nc3cccnc3Cl)[nH]c2c1` as the molecule, how does the “activity change, negative = inhibition” value read?
A: Its value is inactive: 1.44%.

Q: For `CNc1c(C(=O)O)ccc2c1C(=O)c1ccccc1C2=O`, which activity change, negative = inhibition is on record?
A: Its activity change, negative = inhibition is inconclusive: 13.9%.

Q: For `COc1cccc(CNC(=S)NC2CC2)c1`, which Potency is on record?
A: The Potency was inconclusive: 2 µM [falling, partial curve, poor fit].

Q: With `CC[N+](CC)(CC)CCOc1cccc(OCC[N+](CC)(CC)CC)c1OCC[N+](CC)(CC)CC` as the molecule, how does the “activity change, negative = inhibition” value read?
A: The value was inactive: -2.76%.

Q: Which activity change, negative = inhibition does the source give for `CCOC(=O)N1CCN(S(=O)(=O)c2ccc(C(=O)N(CCCN(C)C)c3nc4c(F)cc(F)cc4s3)cc2)CC1` here?
A: The activity change, negative = inhibition was inconclusive: -9.3%.

Q: Which “activity change, negative = inhibition” value does the source give for `COC(=O)c1ccc(NC(=O)c2ccc3c(c2)C(=O)N(C)C3=O)cc1` here?
A: The value was inactive: 1.81%.

Q: With `O=C(c1ccccc1)c1ccccc1C(=O)c1ccccc1` as the molecule, how does the activity change, negative = inhibition read?
A: Its activity change, negative = inhibition is inconclusive: 9.15%.

Q: Which “activity change, negative = inhibition” value does the source give for `Cc1ccnc(NC(=O)C2CCN(S(=O)(=O)c3ccc(Cl)c(C(F)(F)F)c3)CC2)c1` here?
A: The value was inactive: 6.8%.

Q: For `O=C(NCc1ccc(Cl)cc1)C1CCN(S(=O)(=O)c2ccc(F)cc2)CC1`, which “activity change, negative = inhibition” value is on record?
A: Its value is inactive: -1.24%.

Q: For `CCn1cc(CN2CCCC(C(=O)Nc3cccc(-c4cc5ccccc5[nH]4)c3)C2)c(C)n1` (configuration not stated), which activity change, negative = inhibition is on record?
A: The activity change, negative = inhibition was inconclusive: -13%.

Q: Which “activity change, negative = inhibition” value does the source give for `CCC(C)n1c(SCc2ccc(F)cc2Cl)nc2ccsc2c1=O` (configuration not stated) here?
A: The value was inactive: -13.5%.

Q: Which activity change, negative = inhibition does the source give for `Cn1ncc(Br)c1NC(=O)Nc1ccc(Cl)cc1` here?
A: Its activity change, negative = inhibition is inconclusive: 1.02%.

Q: For `Cc1cc(C)nc(SCCC(=O)Nc2ccccc2C)n1`, which activity change, negative = inhibition is on record?
A: Its activity change, negative = inhibition is inconclusive: -11.9%.

Q: Which activity change, negative = inhibition does the source give for `COc1cc(/C=N/NS(=O)(=O)c2ccccc2)c(OC)c(OC)c1` here?
A: Its activity change, negative = inhibition is inconclusive: -5.81%.

Q: With `O=C(CSc1nnc(-c2cccnc2)n1Cc1ccccc1)NCc1ccco1` as the molecule, how does the activity change, negative = inhibition read?
A: The activity change, negative = inhibition was inconclusive: 2.59%.

Q: For `COc1ccc(NC(=O)CC2C(=O)Nc3ccccc3N2CC(=O)N2CCCC2)cc1` (configuration not stated), which activity change, negative = inhibition is on record?
A: The activity change, negative = inhibition was inconclusive: -1.86%.

Q: Which activity change, negative = inhibition does the source give for `COc1ccc(/C=N/NC(=O)c2ccc(Br)o2)cc1Cn1cc([N+](=O)[O-])cn1` here?
A: Its activity change, negative = inhibition is inconclusive: 10.4%.

Q: Which Potency does the source give for `CCOC(=O)c1c(NC(=O)c2cccs2)sc(C(=O)N(C)C)c1C` here?
A: Its Potency is inconclusive: 5.17 µM [falling, single point].

Q: Which “activity change, negative = inhibition” value does the source give for `COc1ccccc1C(=O)Nc1ccc(OCC(=O)N2CC(C)CC(C)C2)cc1` (configuration not stated) here?
A: Its value is inactive: 3.1%.

Q: Which Potency does the source give for `Nc1[nH]c2cc([N+](=O)[O-])ccc2c1-c1ccccn1` here?
A: Its Potency is inconclusive: 2.51 µM [rising, partial curve, poor fit].

Q: With `Cc1cc(NC(=O)c2ccc(NC(=O)CC(C)C)cc2)no1` as the molecule, how does the Potency read?
A: The Potency was inconclusive: 2.06 µM [rising, full curve].

Q: For `Cc1cc(C)cc(NC(=O)C(=S)NCc2ccccc2)c1`, which activity change, negative = inhibition is on record?
A: The activity change, negative = inhibition was inconclusive: 9.49%.

Q: With `CCSc1ncc(Cl)c(C(=O)Nc2ccccc2F)n1` as the molecule, how does the “activity change, negative = inhibition” value read?
A: Its value is inactive: 9.61%.

Q: For `O=C1CC(N2CCSCC2)C(=O)N1c1ccc(F)cc1` (configuration not stated), which “activity change, negative = inhibition” value is on record?
A: The value was inactive: 1.41%.

Q: With `COc1ccc2c(CC(=O)Nc3nc(C)cs3)coc2c1` as the molecule, how does the activity change, negative = inhibition read?
A: The activity change, negative = inhibition was inconclusive: -0.359%.

Q: Which “activity change, negative = inhibition” value does the source give for `Cc1ccc(-n2ncc(C(=O)Nc3ccc(Cl)cc3)c2C2CCNCC2)cc1C` here?
A: The value was inactive: -14.8%.

Q: Which activity change, negative = inhibition does the source give for `Cc1ccc2c(c1)N(CCC(=O)NCCN1CCOCC1)C(=O)CO2` here?
A: Its activity change, negative = inhibition is inconclusive: -6.84%.

Q: With `Cc1onc(-c2ccccc2)c1C(=O)OCC(=O)Nc1cc(S(=O)(=O)N2CCOCC2)ccc1Cl` as the molecule, how does the Potency read?
A: Its Potency is inconclusive: 11.2 µM [falling, partial curve].

Q: With `Cc1ccc(NC(=O)c2ccc(CN3CCc4ccccc4C3)cc2)cc1` as the molecule, how does the “activity change, negative = inhibition” value read?
A: Its value is inactive: -0.513%.

Q: With `CCOC(=O)c1sc(/N=C/c2ccc(O)cc2O)cc1C` as the molecule, how does the Potency read?
A: The Potency was inconclusive: 23.1 µM [falling, single point].

Q: For `Nc1ccc2c(c1)CC(=O)c1ccccc1S2`, which activity change, negative = inhibition is on record?
A: Its activity change, negative = inhibition is inconclusive: -8.76%.

Q: With `CN1CCC(=NNC(=O)CN(c2ccc([N+](=O)[O-])cc2)S(=O)(=O)c2ccccc2)CC1` as the molecule, how does the activity change, negative = inhibition read?
A: Its activity change, negative = inhibition is inconclusive: -1.51%.

Q: For `Cc1ccc(NC(=S)N2CCCC(c3ccccc3)=N2)cc1`, which Potency is on record?
A: Its Potency is inconclusive: 1.78 µM [falling, partial curve, poor fit].

Q: Which activity change, negative = inhibition does the source give for `CC1CC(C)CN(Cc2nc(N)nc(Nc3ccc4ccccc4c3)n2)C1` (configuration not stated) here?
A: The activity change, negative = inhibition was inconclusive: -0.928%.

Q: For `COc1ccc(NC(=O)CN(C)C(=O)c2ccc(N3CCCCC3)c([N+](=O)[O-])c2)cc1`, which activity change, negative = inhibition is on record?
A: The activity change, negative = inhibition was inconclusive: -2.26%.

Q: For `COc1ccc(CCNS(=O)(=O)c2ccccc2[N+](=O)[O-])cc1OC`, which Potency is on record?
A: Its Potency is inconclusive: 25.1 µM [falling, partial curve, poor fit].

Q: For `Cc1ccc(C(=O)Nc2ccc3nccnc3c2)cc1`, which Potency is on record?
A: The Potency was inconclusive: 35.5 µM [falling, single point].

Q: For `CC1(C)CC2CC(C)(CN2c2ncnc3ccc(Br)cc23)C1` (configuration not stated), which activity change, negative = inhibition is on record?
A: The activity change, negative = inhibition was inconclusive: -12.5%.

Q: For `CC(C)c1ccc(-c2cc(C(=O)NN3CCN(C)CC3)c3ccccc3n2)cc1`, which activity change, negative = inhibition is on record?
A: Its activity change, negative = inhibition is inconclusive: -16%.

Q: Which activity change, negative = inhibition does the source give for `NC(=O)C1CCN(C(=O)CSc2nc3ccccc3[nH]2)CC1` here?
A: The activity change, negative = inhibition was inconclusive: -19.2%.

Q: For `N#Cc1c(N)n(-c2ccc(C(=O)O)cc2)c2nc3ccccc3nc12`, which activity change, negative = inhibition is on record?
A: Its activity change, negative = inhibition is inconclusive: -20.6%.

Q: With `O=C(CCC(=O)Nc1cccc([N+](=O)[O-])c1)N/N=C/c1cccs1` as the molecule, how does the activity change, negative = inhibition read?
A: The activity change, negative = inhibition was inconclusive: 3.53%.

Q: For `COc1ccc(CC(=O)OCC(=O)NC(=O)Nc2ccccc2F)cc1`, which activity change, negative = inhibition is on record?
A: Its activity change, negative = inhibition is inconclusive: -0.869%.

Q: Which “activity change, negative = inhibition” value does the source give for `CNC(=O)c1cc2cccc(OC)c2oc1=O` here?
A: The value was inactive: -15.6%.
